# Reference: patent US7977431B2, “Dithiocarbamic esters” (LANXESS Deutschland GmbH, priority 2002, dated 2011)
# Assays:
# [1] = Emulsion copolymerization of 94 parts chloroprene and 6 parts 2,3-dichlorobutadiene with regulator, version A; details: Table 3, version A, 0.233 pts. of regulator, conversion 60%
# [2] = Emulsion polymerization of chloroprene with regulator, version B (redox activation PPS/NHS, 10° C); details: Table 3, version B, 0.116 pts. of regulator, conversion 60%
# [3] = Emulsion polymerization of chloroprene with regulator, version A (formamidinesulphinic acid initiation, 45 C); details: for Mn: number-average molecular weight by GPC, 15 mmol regulator, version A
# [4] = 0.075 parts of regulator, conversion 25%
# [5] = 0.075 parts of regulator, conversion 41%
# [6] = 0.075 parts of regulator, conversion 61%
# [7] = 0.116 parts of regulator, conversion 20%
# [8] = 0.116 parts of regulator, conversion 39%
# [9] = 0.116 parts of regulator, conversion 60%
# [10] = 0.233 parts of regulator, conversion 21%
# [11] = 0.233 parts of regulator, conversion 41%
# [12] = 0.233 parts of regulator, conversion 61%
# [13] = 0.35 parts of regulator, conversion 19%
# [14] = 0.35 parts of regulator, conversion 43%
# [15] = 0.35 parts of regulator, conversion 60%
# [16] = Table 3, version A, 0.116 pts. of regulator, conversion 60%
# [17] = Table 3, version A, 0.35 pts. of regulator, conversion 60%
# [18] = 0.75 parts of regulator, conversion 20%
# [19] = 0.75 parts of regulator, conversion 40%
# [20] = 0.75 parts of regulator, conversion 60%
# [21] = Table 3, version A, 0.233 pts. of regulator, conversion 60%
structure (smiles),measurement,setting,value
"C/C(Cl)=C/CSC(=S)n1cccc1 [Regulator compound (1), 3-chloro-2-butenyl 1H-pyrrole-1-carbodithioate]",Mn (GPC),[1],74 000
same,Mw/Mn,[1],1.6
same,Mw/Mn,[2],1.7
same,Mn (GPC),[3]; [4],102 000
same,Mw/Mn,[3]; [4],1.8
same,Mn (GPC),[3]; [5],127 000
same,Mw/Mn,[3]; [5],1.8
same,Mn (GPC),[3]; [6],190 000
same,Mw/Mn,[3]; [6],2.3
same,Mn (GPC),[3]; [7],56 500
same,Mw/Mn,[3]; [7],1.6
same,Mn (GPC),[3]; [8],84 600
same,Mw/Mn,[3]; [8],1.6
same,Mn (GPC),[3]; [9],131 800
same,Mw/Mn,[3]; [9],1.8
same,Mn (GPC),[3]; [10],33 500
same,Mw/Mn,[3]; [10],1.7
same,Mn (GPC),[3]; [11],53 600
same,Mw/Mn,[3]; [11],1.7
same,Mn (GPC),[3]; [12],72 800
same,Mw/Mn,[3]; [12],2.5
same,Mn (GPC),[3]; [13],14 000
same,Mw/Mn,[3]; [13],2.4
same,Mn (GPC),[3]; [14],36 000
same,Mw/Mn,[3]; [14],1.5
same,Mn (GPC),[3]; [15],49 000
same,Mw/Mn,[3]; [15],1.5
same,Mn (GPC),[3]; [16],130 000
same,Mw/Mn,[3]; [16],1.8
same,Mn (GPC),[3]; [17],49 000
same,Mw/Mn,[3]; [17],1.5
same,Mn,[3],50000
"CCC1(COC(=S)SSC(=S)OCC2(CC)COCOC2)COCOC1 [Regulator compound (7), Methylenetrimeth-ylolpropane-xanthogen disulphide, reference compound]",Mn (GPC),[3]; [18],148 700
same,Mw/Mn,[3]; [18],2.1
same,Mn (GPC),[3]; [19],142 000
same,Mw/Mn,[3]; [19],2.3
same,Mn (GPC),[3]; [20],148 700
same,Mw/Mn,[3]; [20],2.6
same,Mn,[3],168000
"C/C(Cl)=C/CSC(=S)n1ccnc1 [Regulator compound (2), 3-chloro-2-butenyl 1H-imidazole-1-carbodithioate]",Mn (GPC),[3]; [21],115 000
same,Mw/Mn,[3]; [21],2.0
same,Mn,[3],101000
